In patent US20100203123A1, “METHODS FOR IMPROVING COGNITIVE FUNCTION AND DECREASING HEART RATE” (MARTEK BIOSCIENCES CORPORATION, priority 2009, published 2010):

Assay: Plasma Abeta and hs-CRP levels
Assay type: in vivo, human
Conditions: about 900 mg/d, 24 weeks

Question: Which “Abeta1-40,1-42 plasma levels, DHA versus placebo” value does the source give for `CC/C=C\C/C=C\C/C=C\C/C=C\C/C=C\C/C=C\CCC(=O)O` [DHA, (all-Z)-4,7,10,13,16,19-docosahexaenoic acid] here?
Answer: not significantly different

Question: And the “hs-CRP plasma levels, DHA versus placebo” value?
Answer: not significantly different
